In the experiment the target is T1, 14-3-3σ, endogenous, mouse (mouse (endogenous in newborn skin keratinocytes)) (UniProt O70456).
T1 sequence: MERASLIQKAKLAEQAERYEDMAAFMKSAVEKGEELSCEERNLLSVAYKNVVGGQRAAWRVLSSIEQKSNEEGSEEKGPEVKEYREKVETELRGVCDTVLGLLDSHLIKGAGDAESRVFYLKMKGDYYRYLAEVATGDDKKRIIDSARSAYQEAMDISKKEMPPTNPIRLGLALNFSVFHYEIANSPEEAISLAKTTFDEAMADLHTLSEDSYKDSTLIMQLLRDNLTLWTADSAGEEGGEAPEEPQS
Description: proximity ligation; Duolink in situ PLA for 14-3-3σ and YAP1 in fixed WT and Krt14 C373A newborn mouse keratinocytes in primary culture, 1 mM calcium for 4 days.

By UniProt entry, the sequences of proteins in these tests, tags left out.
UniProt P46938: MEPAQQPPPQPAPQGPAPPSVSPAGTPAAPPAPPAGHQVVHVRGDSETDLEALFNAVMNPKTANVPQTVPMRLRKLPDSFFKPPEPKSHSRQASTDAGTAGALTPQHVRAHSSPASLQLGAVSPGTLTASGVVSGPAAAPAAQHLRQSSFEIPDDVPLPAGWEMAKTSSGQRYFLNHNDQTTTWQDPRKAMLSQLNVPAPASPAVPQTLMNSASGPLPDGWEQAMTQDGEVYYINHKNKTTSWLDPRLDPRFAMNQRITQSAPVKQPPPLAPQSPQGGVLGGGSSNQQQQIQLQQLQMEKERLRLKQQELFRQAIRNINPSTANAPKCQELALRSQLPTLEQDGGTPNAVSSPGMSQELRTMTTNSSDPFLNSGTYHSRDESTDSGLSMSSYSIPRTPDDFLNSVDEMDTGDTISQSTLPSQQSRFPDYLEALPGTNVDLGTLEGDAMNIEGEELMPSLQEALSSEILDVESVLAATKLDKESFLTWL

These are yes or no findings as the source states them, for the method shown. In cells and extracts the contact can be indirect. Some results given as binding are weak or reduced against the parent protein; the word gives no strength.

“YAP1, endogenous, mouse (from UniProt P46938 1-488)”: the binding result was “binds”.

For the origin of these results see article PMC7250575.
